# Assay results taken from PubChem BioAssay AID435022 (Sanford-Burnham Center for Chemical Genomics, 2010).
# This is a selection; strong and weak results do not stand in their true shares. Active and inactive are the calls of the source. Cut-off read from the data, not from the text of the source: active = inhibition above about 35%; inactive = the rest.
# Assay: lowers stimulated NF-kB luciferase signal in 697 B cells – cell-based, luminescence, uHTS, B-cell NF-kB inhibitor project, primary screen (AID 435022)
# Conditions: 697 B-cell NF-kB luciferase reporter, PMA/ionomycin, 16 h; at 4 µM; active compounds read high
row,SMILES,inhibition
1,CN[C@H]1C[C@H]2O[C@@](C)([C@H]1OC)n1c3ccccc3c3c4c(c5c6ccccc6n2c5c31)C(=O)NC4,active: 105%
